Assay results: paper PMC5571105
These are yes or no findings as the source states them, for the method shown. For some of these results: A result given as binding can be weak or reduced; the word gives no strength. For some of these results: In cells and extracts the contact can be indirect. For some of these results: Tags and fused reporters may be left off the sequences shown.

B1: OsRR23 (protein, UniProt Q6K8X6 1-688)
chain: MRAAEERKGVVPAARRRDQFPVGMRVLAVDDDPVCLKVLETLLLRCQYHVTTTNQAAIALKMLRENRDMFDLVISDVHMPDMDGFKLLELVGLEMDLPVIMLSVNGETKTVLKGITHGACDYLLKPVRIEELRNIWQHVIRRKFSTRDRANLDFYEECNKPPNADSDHVHGHVTCGSPDQSGRPSKKRKEYCSEEEDEGEVNTQDIDDPSAPKKPRVVWSVELHRKFVAAVNQLGIDKAVPKRILELMNVEKLTRENVASHLQKYRLYLKRLSAVASQQVSIVAALGGRDPFLHMGGFEGLQGYQAFTSSAALSSFTPHGLLNSPRNNPAALGTQGVPASKSIQTMSGSHTLSHSINDANKYHLSLPGNQKGNLGQGLATSLGQTQMQQKWIHEETDDLSTILSGNGLSNGMSGTLQSVTSSPLLPQELAECTQAKIVSQPSIRTSSVSSEHIEGAVGVSSGLLESRVSQQSTIPLSGFSANGLLIHGSFNNTCANKLGGTSSSCAPARSSNDLMVARDTKGGASSFGGAMLLPPDTEQKYLNFGGGNGLKQKFDDRTADSLFDLKFVWSSVPSSQLASNIGAHHAMSQRWNNSSSNSSNIGARMIGQATSSGSTVIPQMKTDFLVSGDMAMPKNASDLSIPKLQSELSSSSCSFDGLLNSIVKVEKDDVTFSDDLGCGDFYSLGACI
B2: OsRR26 (BiFC fusion) (protein, UniProt Q5N6V8 1-582)
chain: MDATAFPYGLRVLVVDDDPTWLKILEKMLRKCSYEVTTCGLARVALDILRERKNKFDIVISDVNMPDMDGFKLLEHIGLEMDLPVIMMSIDGETSRVMKGVQHGACDYLLKPVRMKELRNIWQHVYRKKMHEVKEIEGNDSCDDLQILRNSFEGLDEKSLFMRSDSDTMRKRKDVDKDHADQESSDGNTVKKARVVWSVDLHQKFVNAVNQIGFDKVGPKKILDLMNVPGLTRENVASHLQKYRLYLSRLQKQNEERILGAARQDFSHKGTSENLNLRSSFQEQPSNIANGYPHASQNIQTQANMLDSQLEDTKSTVPLPVPDKKRTLASDAADSQNVTSASSLGGVLSFKSMPVNQDRKPSETMILECQAWTGGIPSKQFMQYPKHNHERCDLLGDYSCLPKPDLEHPVGPSNLYAPPPLISMSCGMEGDARDFSDVKPAIMDCIKSLSPALTCTVDSVSVQLSDSVVTSIDGDLKSSGVDGLPSIKDCCLDQTNSQGSLRPSQEPSIIGSTELASLPEDLPSYPLHGVSLENIGLSSIDLLNYSDAMILSGLQSNWYDDLEFSSEMMDYPSIDECLFASS
B3: OsRR24 (BiFC fusion) (protein, UniProt Q6H805 1-626)
chain: MTVEERQGRVGGHGVSGGGGGRDQFPVGMRVLAVDDDPTCLKILENLLLRCQYHVTTTGQAATALKLLRENKDQFDLVISDVHMPDMDGFKLLELVGLEMDLPVIMLSANGETQTVMKGITHGACDYLLKPVRLEQLRTIWQHVIRRKNCDAKNRGNDDDAGQKAQGMNNEGESIGANRNKRQSRKSRDENGDDGDDSDENSNENGDSSTQKKPRVVWSVELHRKFVAAVNQLGIEKAVPKKILDLMNVENITRENVASHLQKYRLYLKRLSTDASRQANLAAAFGGRNPAYINMNSFGNYNAYGRYRTVPTAGHTQANNILTRMNSPSAFGVHGLLHSQPIQLGHAQNNLSTSLNDLGGLNNGNMIRGAQMSTILTGPSGNSFPNISNGAPLATANRSLQPLESSNQQHLSRVHSSSADPFSTLVGESPQFPDLGRTTNTWQTAVPSNIQDRGHNDNMSQATLHMNGPKIEPVSSFTSSNQIPLLGNEMQGQVASLASNVPIAFNQDTSPFNYGSSTNSRDMLNNSHVFSNSSINTSLPNLSLDNPAVPRQTLDRGNTGIVSPMQDGRIHHQAVSNQLNYNDDLMRTTGLQRGLSGGLDDIVVDMFRPDREDDGVPYIDGDWELV

Tests used:
OsPHP3 (rice) [1] = test: two-hybrid; β-galactosidase filter lift assay (LacZ reporter) of the co-transformed yeast colonies, X-gal as substrate, 30 °C in the dark
OsPHP1 (rice) [2] = test: as above
OsPHP2 (rice) [3] = test: as above
OsPHP3 (rice) [4] = test: two-hybrid; S. cerevisiae AH109; bait in pGBD-C1 (GAL4 binding domain; written as target), prey in pGAD-C1 (GAL4 activation domain; written as binder); serial dilutions spotted on triple drop-out medium with 5 mM 3-AT (HIS3) and quadruple drop-out medium (ADE2), 30 °C; growth on quadruple drop-out shows strong interaction
OsPHP1 (rice) [5] = test: as above
OsRR5 (rice) = test: as above
OsRR13 (rice) = test: as above
OsRR1 (rice) = test: as above
OsRR6 (rice) = test: as above
OsRR4 (rice) = test: as above
OsPHP2 (rice) [6] = test: as above
OsRR12 (rice) = test: as above
cEYFP-OsPHP2 (rice) = test: split reporter; BiFC in onion epidermal peel cells, nEYFP and cEYFP fusions under the 2XCaMV35S promoter co-transformed by particle bombardment; YFP seen by confocal microscopy 12 hours post transfection; repeated three times
[7] = target: OsPHP3 (BiFC fusion) (rice); test: as above
nEYFP-OsRR4 (rice) = test: as above
[8] = target: OsPHP1 (BiFC fusion) (rice); test: as above
nEYFP-OsRR12 (rice) = test: as above

Binder	binding (OsPHP3 (rice) [1])	binding (OsPHP1 (rice) [2])	binding (OsPHP2 (rice) [3])	binding (OsPHP3 (rice) [4])	binding (OsPHP1 (rice) [5])	binding (OsRR5 (rice))	binding (OsRR13 (rice))	binding (OsRR1 (rice))	binding (OsRR6 (rice))	binding (OsRR4 (rice))	binding (OsPHP2 (rice) [6])	binding (OsRR12 (rice))	binding (cEYFP-OsPHP2 (rice))	binding [7]	binding (nEYFP-OsRR4 (rice))	binding [8]	binding (nEYFP-OsRR12 (rice))
B1	binds	binds	binds	binds weakly	binds	no binding	no binding	no binding	no binding	no binding	binds	no binding	–	–	–	–	–
B2	–	–	–	–	–	–	–	–	–	–	–	–	binds	binds	binds	binds	–
B3	–	–	–	–	–	–	–	–	–	–	–	–	binds	binds	–	–	binds
